According to article doi:10.1101/2022.09.13.507805:
These are yes or no findings as the source states them, for the method shown. Some binding calls cover weakened binding; strength is not graded here. Tags and fused reporters may be left off the sequences shown.

Sequences of proteins named here, by UniProt entry; tags and fusion partners are left off.
UniProt Q96704, whole entry: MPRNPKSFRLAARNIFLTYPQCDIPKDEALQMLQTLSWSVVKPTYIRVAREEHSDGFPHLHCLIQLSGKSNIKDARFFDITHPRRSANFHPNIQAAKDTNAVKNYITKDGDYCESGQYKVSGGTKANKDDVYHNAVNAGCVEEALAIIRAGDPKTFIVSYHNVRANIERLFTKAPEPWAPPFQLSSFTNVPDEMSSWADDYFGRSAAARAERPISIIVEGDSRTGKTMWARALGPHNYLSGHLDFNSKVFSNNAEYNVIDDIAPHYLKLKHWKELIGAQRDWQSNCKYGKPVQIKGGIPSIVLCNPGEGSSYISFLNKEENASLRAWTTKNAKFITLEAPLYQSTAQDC
UniProt Q8RXD4, whole entry: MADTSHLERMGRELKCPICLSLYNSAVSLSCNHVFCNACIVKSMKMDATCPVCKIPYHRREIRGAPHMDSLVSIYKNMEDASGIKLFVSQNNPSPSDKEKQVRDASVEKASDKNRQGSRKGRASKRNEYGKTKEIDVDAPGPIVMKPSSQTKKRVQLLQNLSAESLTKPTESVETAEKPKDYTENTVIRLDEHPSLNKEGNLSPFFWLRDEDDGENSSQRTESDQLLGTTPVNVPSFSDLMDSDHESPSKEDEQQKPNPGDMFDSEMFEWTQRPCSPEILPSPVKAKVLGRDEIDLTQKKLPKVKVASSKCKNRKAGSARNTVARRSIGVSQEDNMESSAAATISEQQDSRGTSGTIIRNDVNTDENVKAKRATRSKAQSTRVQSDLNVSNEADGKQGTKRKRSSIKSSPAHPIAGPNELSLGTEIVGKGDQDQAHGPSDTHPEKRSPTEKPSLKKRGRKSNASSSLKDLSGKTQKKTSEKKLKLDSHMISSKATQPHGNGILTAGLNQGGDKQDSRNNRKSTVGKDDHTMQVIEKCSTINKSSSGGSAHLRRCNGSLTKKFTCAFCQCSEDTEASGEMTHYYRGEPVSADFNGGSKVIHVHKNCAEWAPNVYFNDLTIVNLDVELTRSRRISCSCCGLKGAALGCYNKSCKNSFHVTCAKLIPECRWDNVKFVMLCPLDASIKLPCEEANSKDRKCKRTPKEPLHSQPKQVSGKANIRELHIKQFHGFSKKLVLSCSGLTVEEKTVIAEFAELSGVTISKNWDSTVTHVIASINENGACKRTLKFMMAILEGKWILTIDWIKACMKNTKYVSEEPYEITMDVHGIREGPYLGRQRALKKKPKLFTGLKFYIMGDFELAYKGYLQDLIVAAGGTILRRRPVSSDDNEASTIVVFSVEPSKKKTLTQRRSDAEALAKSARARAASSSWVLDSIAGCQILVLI
UniProt Q9M7Q7, whole entry: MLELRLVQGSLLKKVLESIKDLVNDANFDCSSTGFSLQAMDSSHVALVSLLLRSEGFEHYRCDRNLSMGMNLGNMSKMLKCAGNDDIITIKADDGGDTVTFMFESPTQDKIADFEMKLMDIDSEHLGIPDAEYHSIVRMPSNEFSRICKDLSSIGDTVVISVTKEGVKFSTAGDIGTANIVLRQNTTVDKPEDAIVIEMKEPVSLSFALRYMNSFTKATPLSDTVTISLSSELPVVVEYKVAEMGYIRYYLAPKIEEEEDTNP

T1: RPA1A (replication protein A 1A, AT2G06510), yeast two-hybrid fusion (Arabidopsis thaliana) (UniProt Q9SKI4)
T1 sequence: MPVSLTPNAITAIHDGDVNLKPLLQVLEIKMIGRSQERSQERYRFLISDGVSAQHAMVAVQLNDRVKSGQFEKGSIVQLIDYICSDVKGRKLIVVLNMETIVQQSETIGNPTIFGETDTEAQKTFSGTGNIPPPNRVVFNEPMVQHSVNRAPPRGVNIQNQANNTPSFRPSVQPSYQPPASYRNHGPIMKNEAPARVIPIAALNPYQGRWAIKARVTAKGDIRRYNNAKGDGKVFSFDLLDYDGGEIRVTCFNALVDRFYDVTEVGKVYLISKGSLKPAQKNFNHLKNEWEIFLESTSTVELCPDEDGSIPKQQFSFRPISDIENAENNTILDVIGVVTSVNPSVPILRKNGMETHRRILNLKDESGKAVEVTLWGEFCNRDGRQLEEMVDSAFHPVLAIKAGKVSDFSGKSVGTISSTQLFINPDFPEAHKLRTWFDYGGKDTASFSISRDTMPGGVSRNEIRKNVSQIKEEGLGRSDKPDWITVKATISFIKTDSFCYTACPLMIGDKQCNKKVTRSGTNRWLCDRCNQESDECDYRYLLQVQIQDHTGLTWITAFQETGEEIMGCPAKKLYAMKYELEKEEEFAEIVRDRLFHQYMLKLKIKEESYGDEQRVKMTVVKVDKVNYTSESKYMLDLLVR

T2: RAD51 (AT5G20850), yeast two-hybrid fusion (Arabidopsis thaliana) (UniProt P94102)
T2 sequence: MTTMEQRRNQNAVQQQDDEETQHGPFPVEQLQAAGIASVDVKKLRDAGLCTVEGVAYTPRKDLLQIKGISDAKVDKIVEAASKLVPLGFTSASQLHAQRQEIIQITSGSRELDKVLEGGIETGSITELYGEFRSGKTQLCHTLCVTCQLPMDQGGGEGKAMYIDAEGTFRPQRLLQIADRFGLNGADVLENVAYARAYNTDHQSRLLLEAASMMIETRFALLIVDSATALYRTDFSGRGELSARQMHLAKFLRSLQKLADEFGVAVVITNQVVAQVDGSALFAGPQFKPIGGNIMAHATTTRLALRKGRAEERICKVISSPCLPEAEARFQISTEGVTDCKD


Tests used:
Experiment in all cases: two-hybrid
[1] = biological target: T1, RPA1A (replication protein A 1A, AT2G06510), yeast two-hybrid fusion (Arabidopsis thaliana)
[2] = biological target: T2, RAD51 (AT5G20850), yeast two-hybrid fusion (Arabidopsis thaliana)
[3] = biological target: Rep (encoded by CaLCuV), yeast two-hybrid bait (Cabbage Leaf Curl Virus (CaLCuV)) (UniProt Q96704)

Row | Molecule | binding [1] | binding [2] | binding [3]
1 | BRCA1 (AT4G21070), yeast two-hybrid fusion (from UniProt Q8RXD4 1-941) | no binding | binds | –
2 | PCNA1 (AT1G07370), yeast two-hybrid fusion (from UniProt Q9M7Q7 1-263) | – | – | binds
3 | RPA1A (replication protein A 1A, AT2G06510), yeast two-hybrid fusion (protein, UniProt Q9SKI4 1-640) MPVSLTPNAITAIHDGDVNLKPLLQVLEIKMIGRSQERSQERYRFLISDGVSAQHAMVAVQLNDRVKSGQFEKGSIVQLIDYICSDVKGRKLIVVLNMETIVQQSETIGNPTIFGETDTEAQKTFSGTGNIPPPNRVVFNEPMVQHSVNRAPPRGVNIQNQANNTPSFRPSVQPSYQPPASYRNHGPIMKNEAPARVIPIAALNPYQGRWAIKARVTAKGDIRRYNNAKGDGKVFSFDLLDYDGGEIRVTCFNALVDRFYDVTEVGKVYLISKGSLKPAQKNFNHLKNEWEIFLESTSTVELCPDEDGSIPKQQFSFRPISDIENAENNTILDVIGVVTSVNPSVPILRKNGMETHRRILNLKDESGKAVEVTLWGEFCNRDGRQLEEMVDSAFHPVLAIKAGKVSDFSGKSVGTISSTQLFINPDFPEAHKLRTWFDYGGKDTASFSISRDTMPGGVSRNEIRKNVSQIKEEGLGRSDKPDWITVKATISFIKTDSFCYTACPLMIGDKQCNKKVTRSGTNRWLCDRCNQESDECDYRYLLQVQIQDHTGLTWITAFQETGEEIMGCPAKKLYAMKYELEKEEEFAEIVRDRLFHQYMLKLKIKEESYGDEQRVKMTVVKVDKVNYTSESKYMLDLLVR | – | – | binds
4 | RAD51 (AT5G20850), yeast two-hybrid fusion (protein, UniProt P94102 1-342) MTTMEQRRNQNAVQQQDDEETQHGPFPVEQLQAAGIASVDVKKLRDAGLCTVEGVAYTPRKDLLQIKGISDAKVDKIVEAASKLVPLGFTSASQLHAQRQEIIQITSGSRELDKVLEGGIETGSITELYGEFRSGKTQLCHTLCVTCQLPMDQGGGEGKAMYIDAEGTFRPQRLLQIADRFGLNGADVLENVAYARAYNTDHQSRLLLEAASMMIETRFALLIVDSATALYRTDFSGRGELSARQMHLAKFLRSLQKLADEFGVAVVITNQVVAQVDGSALFAGPQFKPIGGNIMAHATTTRLALRKGRAEERICKVISSPCLPEAEARFQISTEGVTDCKD | – | – | binds
5 | B1 type cyclin dependent protein kinase CYCB1;1 (AT4G37490), yeast two-hybrid fusion (protein, UniProt P30183 1-428) MMTSRSIVPQQSTDDVVVVDGKNVAKGRNRQVLGDIGNVVRGNYPKNNEPEKINHRPRTRSQNPTLLVEDNLKKPVVKRNAVPKPKKVAGKPKVVDVIEISSDSDEELGLVAAREKKATKKKATTYTSVLTARSKAACGLEKKQKEKIVDIDSADVENDLAAVEYVEDIYSFYKSVESEWRPRDYMASQPDINEKMRLILVEWLIDVHVRFELNPETFYLTVNILDRFLSVKPVPRKELQLVGLSALLMSAKYEEIWPPQVEDLVDIADHAYSHKQILVMEKTILSTLEWYLTVPTHYVFLARFIKASIADEKMENMVHYLAELGVMHYDTMIMFSPSMVAASAIYAARSSLRQVPIWTSTLKHHTGYSETQLMDCAKLLAYQQWKQQEEGSESSTKGALRKKYSKDERFAVALIPPAKALLTGTESA | no binding | binds | –
